Measurements reported in PubChem BioAssay AID330 (DTP/NCI, 2004).
The list is a part of this screen's results and no random one: it is rich in T/C values a quarter to a half above the control, in often repeated tests (any T/C) and in doses without a T/C. Other doses and runs of a compound stand elsewhere. T/C is the treated group as % of the vehicle group. Some doses have a count of surviving animals in place of a T/C: the source files T/C as zero there, which appears to mark a toxic dose or a test without result, not a measured value. Some doses without a T/C left all or most animals alive at the check, yet need not have been tolerated: the source hardly ever lists a survival T/C far under the control, and the zero likely stands for such cases as well. Survivors were counted at the toxicity check, usually on the fifth day, unless a day is given; later deaths do not show. Schedules are NCI's codes, read here as Q, the interval in days (D) or hours (H), X, the number of doses. Some doses were run more than once; the results are listed from low to high. For survival time, the PubChem record calls one and a half times the control and up active, and a quarter to a half above the control has no call in these data; cut-offs in other NCI protocols can differ. Some T/C values are followed by the survivors on the day toxicity was checked, most often the fifth; where none is given, no animal had died by that day.

Test system: P388 leukemia ip, CD2F1 mice, survival T/C
Experiment: NCI In Vivo Anticancer Drug Screen. Data for tumor model P388 Leukemia (intraperitoneal) in CD2F1 (CDF1) mice
Conditions: T/C endpoint: median survival time, higher T/C = longer survival
[1] = dose: 50.0 mg/kg/injection, schedule: Q01DX009 (ip), vehicle: saline
[2] = dose: 100.0 mg/kg/injection, schedule: Q01DX009 (ip), vehicle: saline
[3] = dose: 200.0 mg/kg/injection, schedule: Q01DX009 (ip), vehicle: saline
[4] = dose: 200.0 mg/kg/injection, schedule: Q01DX005 (ip), vehicle: saline with Tween-80
[5] = dose: 100.0 mg/kg/injection, schedule: Q01DX005 (ip), vehicle: saline with Tween-80
[6] = dose: 50.0 mg/kg/injection, schedule: Q01DX009 (ip), vehicle: Klucel (hydroxypropylcellulose) (HPC)
[7] = dose: 100.0 mg/kg/injection, schedule: Q01DX009 (ip), vehicle: Klucel (hydroxypropylcellulose) (HPC)

`CC/C(=C(\c1ccccc1)c1ccc(OCCNC)cc1)c1ccccc1` was tested, and the survivor count (dose: 60.0 mg/kg/injection, schedule: Q01DX005 (ip), vehicle: Klucel (hydroxypropylcellulose) (HPC)) was 1 of 6, the survivor count (dose: 120.0 mg/kg/injection, schedule: Q01DX005 (ip), vehicle: Klucel (hydroxypropylcellulose) (HPC)) was 1 of 6 and the survivor count (dose: 240.0 mg/kg/injection, schedule: Q01DX005 (ip), vehicle: Klucel (hydroxypropylcellulose) (HPC)) was 0 of 6.

For `CNC1Cc2c[nH]c3cccc(c23)C12C=C(C)C(=O)O2` (stereo unspecified), the survivor count (dose: 300.0 mg/kg/injection, schedule: Q01DX009 (ip), vehicle: saline with Tween-80) was 0 of 3.

For `C/C(=N\NC(=O)c1ccccc1O)c1cccc(/C(C)=N/NC(=O)c2ccccc2O)n1`, the T/C (dose: 6.25 mg/kg/injection, schedule: Q01DX009 (ip), vehicle: saline) was 134 % of control, the T/C (dose: 12.5 mg/kg/injection, schedule: Q01DX009 (ip), vehicle: saline) was 125 and 127 % of control [5 of 6 alive] and the T/C (dose: 25.0 mg/kg/injection, schedule: Q01DX009 (ip), vehicle: saline) was 129 and 132 % of control. For the same molecule, the survivor count [1] was 6 of 6, the survivor count [2] was 6 of 6 and the survivor count [3] was 5 of 6.

For `C=C1C(=O)OCC1(C(=O)OCC)C(=O)OCC`, the T/C (dose: 4.0 mg/kg/injection, schedule: Q01DX009 (ip), vehicle: saline with Tween-80) was 129 % of control, the T/C (dose: 16.0 mg/kg/injection, schedule: Q01DX009 (ip), vehicle: saline with Tween-80) was 134 % of control and the T/C (dose: 32.0 mg/kg/injection, schedule: Q01DX009 (ip), vehicle: saline with Tween-80) was 147 % of control. For the same molecule, the survivor count (dose: 64.0 mg/kg/injection, schedule: Q01DX009 (ip), vehicle: saline with Tween-80) was 1 of 6.

`COC(C(=O)C1=C2Oc3c4c(cc(O)c3C(=O)C2C2=C(CCCC2)C1=O)OC(C)(C)C=C4)C(C)CCC=C(C)C` (stereo unspecified) was tested, and the T/C (dose: 100.0 mg/kg/injection, schedule: Q01DX005 (ip), vehicle: saline) was 126 % of control.

In the case of `CC1(c2ccccc2)CCCCC/C1=N/Nc1ccc([N+](=O)[O-])cc1[N+](=O)[O-]` (stereo unspecified), the survivor count (dose: 200.0 mg/kg/injection, schedule: Q01DX005 (ip), vehicle: Klucel (hydroxypropylcellulose) (HPC)) is reported as 6 of 6.

`CCCCCCCCCCCCCCN1CCOCC1` was tested, and the survivor count [2] was 2 of 6 and the survivor count [3] was 0 of 6.

With `O=[N+]([O-])c1ccc(N=Nc2ccc(NNc3ccc([N+](=O)[O-])cn3)c3cc4ccccc4cc23)nc1` the survivor count [4] was 0 of 6.

For `CC(=O)O[C@H]1CC[C@]2(C)C3CC[C@]4(C)C([C@H](C)CCCC(C)C)CCC4[C@]3(/C=N/O)n3c(=O)n(-c4ccccc4)c(=O)n3[C@]2(/C=N\O)C1` (stereo partly specified), the survivor count (dose: 3.75 mg/kg/injection, schedule: Q01DX005 (ip), vehicle: saline with Tween-80) was 5 of 6, the survivor count (dose: 7.5 mg/kg/injection, schedule: Q01DX005 (ip), vehicle: saline with Tween-80) was 0 of 5 and 0 of 6 and the survivor count (dose: 15.0 mg/kg/injection, schedule: Q01DX005 (ip), vehicle: saline with Tween-80) was 0 of 6. The survivor count (dose: 30.0 mg/kg/injection, schedule: Q01DX005 (ip), vehicle: saline with Tween-80) was 0 of 6, the survivor count (dose: 60.0 mg/kg/injection, schedule: Q01DX005 (ip), vehicle: saline with Tween-80) was 0 of 6 and the survivor count (dose: 120.0 mg/kg/injection, schedule: Q01DX005 (ip), vehicle: saline with Tween-80) was 0 of 6. For the same molecule, the survivor count (dose: 240.0 mg/kg/injection, schedule: Q01DX005 (ip), vehicle: saline with Tween-80) was 0 of 6.

In the case of `O=[N+]([O-])c1ccc(-c2csc(Nc3ccccn3)n2)o1`, the survivor count [5] is reported as 5 of 6 and the survivor count [4] is reported as 6 of 6.

For `COc1ccc(N2C(=O)/C(=C/c3ccccc3)N=C2/C=C/c2ccc(Cl)cc2)cc1`, the survivor count (dose: 120.0 mg/kg/injection, schedule: Q01DX005 (ip), vehicle: Klucel + Tween-80) was 2 of 6 and the survivor count (dose: 240.0 mg/kg/injection, schedule: Q01DX005 (ip), vehicle: Klucel + Tween-80) was 3 of 6.

For `CC(=O)NCC(O)CNC(C)=O`, the survivor count [1] was 6 of 6, the survivor count [2] was 6 of 6 and the survivor count [3] was 6 of 6.

With `Cc1noc(NS(=O)(=O)c2ccc(N=Nc3cc(N=Nc4ccc(S(=O)(=O)Nc5onc(C)c5C)cc4)c4c(NC(=O)C(Cl)Cl)cccc4c3O)cc2)c1C` (tested in a mixture with another compound) the T/C [5] was 126 and 128 % of control, the T/C [4] was 140 % of control and the survivor count [4] was 5 of 5. For the same molecule, the survivor count (dose: 400.0 mg/kg/injection, schedule: Q01DX005 (ip), vehicle: saline with Tween-80) was 1 of 5.

`C[Si](C)(C)C1c2ccccc2-c2[nH]c3ccccc3c21` (stereo unspecified) was tested, and the survivor count [6] was 6 of 6, the survivor count [7] was 1 of 6 and the survivor count (dose: 200.0 mg/kg/injection, schedule: Q01DX009 (ip), vehicle: Klucel (hydroxypropylcellulose) (HPC)) was 0 of 6.

`COC12CC(=O)C(C(C)=O)=C(O)C1(C)c1c(O)c(C)c(O)c(C(C)=O)c1O2` (stereo unspecified) was tested, and the survivor count (dose: 100.0 mg/kg/injection, schedule: Q01DX009 (ip), vehicle: gum acacia) was 0 of 6 and 1 of 6 and the survivor count (dose: 200.0 mg/kg/injection, schedule: Q01DX009 (ip), vehicle: gum acacia) was 0 of 6.

In the case of `O=c1c(O)c(-c2cc(O)c(O)c(O)c2)oc2cc(O)cc(O)c12`, the survivor count (dose: 12.5 mg/kg/injection, schedule: Q01DX009 (ip), vehicle: Klucel (hydroxypropylcellulose) (HPC)) is reported as 1 of 6, the survivor count (dose: 25.0 mg/kg/injection, schedule: Q01DX009 (ip), vehicle: Klucel (hydroxypropylcellulose) (HPC)) is reported as 0 of 6 and the T/C (dose: 25.0 mg/kg/injection, schedule: Q01DX009 (ip), vehicle: other) is reported as 135 % of control. For the same molecule, the T/C [6] was 130 % of control, the survivor count [6] was 0 of 6 and the T/C (dose: 50.0 mg/kg/injection, schedule: Q01DX009 (ip), vehicle: other) was 135 % of control. The survivor count (dose: 75.0 mg/kg/injection, schedule: Q01DX009 (ip), vehicle: Klucel (hydroxypropylcellulose) (HPC)) was 0 of 6.

With `CC(=O)OCC1OC([S-])C(OC(C)=O)C(OC(C)=O)C1OC(C)=O.CC[PH+](CC)CC.CC[PH+](CC)CC.[Au].[Au]` (stereo unspecified) the T/C (dose: 2.5 mg/kg/injection, schedule: Q01DX009 (ip), vehicle: Klucel (hydroxypropylcellulose) (HPC)) was 136 % of control, the T/C (dose: 5.0 mg/kg/injection, schedule: Q01DX009 (ip), vehicle: Klucel (hydroxypropylcellulose) (HPC)) was 133 % of control [5 of 6 alive] and the T/C (dose: 10.0 mg/kg/injection, schedule: Q01DX009 (ip), vehicle: Klucel (hydroxypropylcellulose) (HPC)) was 142 % of control. The survivor count (dose: 20.0 mg/kg/injection, schedule: Q01DX009 (ip), vehicle: Klucel (hydroxypropylcellulose) (HPC)) was 0 of 6.

For `CC1C(c2ccccc2)OCCN1C(=S)Nc1ccc(S(=O)(=O)N2CCCCC2)cc1` (stereo unspecified), the survivor count [7] was 5 of 6.

In the case of `Nc1csc(Nc2c3ccccc3nc3ccccc23)n1`, the survivor count (dose: 50.0 mg/kg/injection, schedule: Q04DX002 (ip), vehicle: distilled water + Tween-80) is reported as 5 of 6, the survivor count (dose: 100.0 mg/kg/injection, schedule: Q04DX002 (ip), vehicle: distilled water + Tween-80) is reported as 2 of 6 and the survivor count (dose: 200.0 mg/kg/injection, schedule: Q04DX002 (ip), vehicle: distilled water + Tween-80) is reported as 1 of 6. The survivor count (dose: 400.0 mg/kg/injection, schedule: Q04DX002 (ip), vehicle: distilled water + Tween-80) was 1 of 6.

`ClC(Cl)CN(Cc1ccccc1)c1ncc[nH]1` was tested, and the survivor count (dose: 100.0 mg/kg/injection, schedule: Q01DX001 (ip), vehicle: saline with Tween-80) was 2 of 6, the survivor count (dose: 200.0 mg/kg/injection, schedule: Q01DX001 (ip), vehicle: saline with Tween-80) was 0 of 6 and the survivor count (dose: 400.0 mg/kg/injection, schedule: Q01DX001 (ip), vehicle: saline with Tween-80) was 0 of 6.

For `NC(=S)N/N=C/c1ccc(OC(=O)COc2ccc(Cl)cc2)cn1`, the T/C (dose: 6.25 mg/kg/injection, schedule: Q01DX009 (ip), vehicle: saline with Tween-80) was 137 % of control, the T/C (dose: 25.0 mg/kg/injection, schedule: Q01DX009 (ip), vehicle: saline with Tween-80) was 148 % of control and the survivor count (dose: 200.0 mg/kg/injection, schedule: Q01DX009 (ip), vehicle: saline with Tween-80) was 6 of 6. The survivor count (dose: 400.0 mg/kg/injection, schedule: Q01DX009 (ip), vehicle: saline with Tween-80) was 3 of 6.

With `CCOc1ccc(NC(=O)C(C(C)N2CCCCC2)N2CCCCC2)cc1` (stereo unspecified) the survivor count [1] was 6 of 6.
